Source: US11884647B2, “Compounds and methods for targeting pathogenic blood vessels” (THE REGENTS OF THE UNIVERSITY OF CALIFORNIA, priority 2019, dated 2024)
At least one read-out could not be matched to a standard name with certainty.

The compounds below were run on tumor endothelial cells (CT26.CL25 colon cancer tumor) (assay: Colon CT26 ex vivo model of tumor angiogenesis). Conditions: Conc. 10 μm.
Format: cell-based, mouse
Summary of the method: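 Explant pieces of CT26 tumor (about 0.075 mm^3) were embedded in Matrigel and grown in endothelial growth medium at 37 °C for about 7 days until endothelial outgrowth appeared, then treated. Cell death was read about 48 h after drug addition by fluorescein diacetate (live) and propidium iodide (dead) staining with red/green imaging.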
With `COc1ccc(S(=O)(=O)c2cnc3cc(OC)c(OC)cc3c2-n2cncn2)cc1OC` [compound 96, 3-((3,4-dimethoxyphenyl)sulfonyl)-6,7-dimethoxy-4-(1H-1,2,4-triazol-1-yl)quinoline] the “48 hrs (morphology observations after 48 hours)” value was 0.

Same assay, conditions: Conc. 40 μm
In the case of `CCCCOc1ccc(S(=O)(=O)c2cnc3ccc(OC(F)(F)F)cc3c2NN2CCN(C)CC2)cc1` [compound 92, 3-((4-butoxyphenyl)sulfonyl)-N-(4-methylpiperazin-1-yl)-6-(trifluoromethoxy)quinolin-4-amine], the “48 hrs (morphology observations after 48 hours)” value is reported as 0.
`N#Cc1ccc(S(=O)(=O)c2cnc3ccc(OC(F)(F)F)cc3c2N2CCC(N3CCCCC3)CC2)cc1` [compound 54, 4-((4-([1,4′-bipiperidin]-1′-yl)-6-(trifluoromethoxy)quinolin-3-yl)sulfonyl)benzonitrile] was tested, and the “48 hrs (morphology observations after 48 hours)” value was 0.
With `CCOC(=O)c1ccc2ncc(S(=O)(=O)c3ccc(OC)cc3)c(N3CCC(N4CCCCC4)CC3)c2c1` [compound 136, ethyl 4-([1,4′-bipiperidin]-1′-yl)-3-((4-methoxyphenyl)sulfonyl)quinoline-6-carboxylate] the “48 hrs (morphology observations after 48 hours)” value was 0.
With `CCc1ccc(S(=O)(=O)c2cnc3ccc(C(=O)O)cc3c2N2CCCN(C)CC2)cc1` [compound 66, 3-((4-ethylphenyl)sulfonyl)-4-(4-methyl-1,4-diazepan-1-yl)quinoline-6-carboxylic acid] the “48 hrs (morphology observations after 48 hours)” value was 0.
For `CCCCOc1ccc(S(=O)(=O)c2cnc3ccc([S+](C)[O-])cc3c2N2CCC(N3CCCC(O)C3)CC2)cc1` (stereo not drawn) [compound 208, 1′-(3-((4-butoxyphenyl)sulfonyl)-6-(methylsulfinyl)quinolin-4-yl)-[1,4′-bipiperidin]-3-ol], the “48 hrs (morphology observations after 48 hours)” value was 0.
For `CCCCN(CCCC)c1c(S(=O)(=O)c2ccc(OC)c(OC)c2)cnc2ccc(SC)cc12` [compound 124, N,N-dibutyl-3-((3,4-dimethoxyphenyl)sulfonyl)-6-(methylthio)quinolin-4-amine], the “48 hrs (morphology observations after 48 hours)” value was 0.
In the case of `CCCCOc1ccc(S(=O)(=O)c2cnc3ccc(S(C)(=O)=O)cc3c2N2CCCN(C)CC2)cc1` [compound 164, 3-((4-butoxyphenyl)sulfonyl)-4-(4-methyl-1,4-diazepan-1-yl)-6-(methylsulfonyl)quinoline], the “48 hrs (morphology observations after 48 hours)” value is reported as “**** (100% of endothelial cells vesicularize in cell shape and look flattened in morphology (indicating disintegration of the cell body))”.
In the case of `CCCCCCCOc1ccc(S(=O)(=O)c2cnc3ccc([S+](C)[O-])cc3c2N2CCC(N3CCCCC3)CC2)cc1` (stereo not drawn) [compound 221, 4-([1,4′-bipiperidin]-1′-yl)-3-((4-(heptyloxy)phenyl)sulfonyl)-6-(methylsulfinyl)quinoline], the “48 hrs (morphology observations after 48 hours)” value is reported as “**** (100% of endothelial cells vesicularize in cell shape and look flattened in morphology (indicating disintegration of the cell body))”.
`CCCCOc1ccc(S(=O)(=O)c2cnc3ccc([S+](C)[O-])cc3c2N2CCCN(C)CC2)cc1` (stereo not drawn) [compound 163, 3-((4-butoxyphenyl)sulfonyl)-4-(4-methyl-1,4-diazepan-1-yl)-6-(methylsulfinyl)quinoline] was tested, and the “48 hrs (morphology observations after 48 hours)” value was “**** (100% of endothelial cells vesicularize in cell shape and look flattened in morphology (indicating disintegration of the cell body))”.
`COc1ccc(S(=O)(=O)c2cnc3ccc(SC)cc3c2N2CCC(N3CCC(O)CC3)CC2)cc1OC` [compound 153, 1′-(3-((3,4-dimethoxyphenyl)sulfonyl)-6-(methylthio)quinolin-4-yl)-[1,4′-bipiperidin]-4-ol] was tested, and the “48 hrs (morphology observations after 48 hours)” value was “* (50% or less of cells vesicularize in cell shape)”.
In the case of `CCCCOc1ccc(S(=O)(=O)c2cnc3ccc(OC(F)(F)F)cc3c2N2CCCN(C)CC2)cc1` [compound 151, 3-((4-butoxyphenyl)sulfonyl)-4-(4-methyl-1,4-diazepan-1-yl)-6-(trifluoromethoxy)quinoline], the “48 hrs (morphology observations after 48 hours)” value is reported as “**** (100% of endothelial cells vesicularize in cell shape and look flattened in morphology (indicating disintegration of the cell body))”.
With `CCc1ccc(S(=O)(=O)c2cnc3ccc(OC(F)(F)F)cc3c2NCCO)cc1` [compound 95, 2-((3-((4-ethylphenyl)sulfonyl)-6-(trifluoromethoxy)quinolin-4-yl)amino)ethan-1-ol] the “48 hrs (morphology observations after 48 hours)” value was 0.
For `CN1CCN(Nc2c(S(=O)(=O)c3ccc(OC(F)(F)F)cc3)cnc3ccc(OC(F)(F)F)cc23)CC1` [compound 90, N-(4-methylpiperazin-1-yl)-6-(trifluoromethoxy)-3-((4-(trifluoromethoxy)phenyl)sulfonyl)quinolin-4-amine], the “48 hrs (morphology observations after 48 hours)” value was 0.
`CCc1ccc(S(=O)(=O)c2cnc3ccc(OC(F)(F)F)cc3c2N(C)Cc2ccccc2)cc1` [compound 49, N-benzyl-3-((4-ethylphenyl)sulfonyl)-N-methyl-6-(trifluoromethoxy)quinolin-4-amine] was tested, and the “48 hrs (morphology observations after 48 hours)” value was 0.
`COc1ccc(S(=O)(=O)c2cnc3ccc(OC(F)(F)F)cc3c2N2CCC(O)(c3cccc(OC)c3)CC2)cc1` [compound 150, 4-(3-methoxyphenyl)-1-(3-((4-methoxyphenyl)sulfonyl)-6-(trifluoromethoxy)quinolin-4-yl)piperidin-4-ol] was tested, and the “48 hrs (morphology observations after 48 hours)” value was 0.
In the case of `CCOC(=O)c1ccc2ncc(S(=O)(=O)c3ccc(CC)cc3)c(N3CCC(OCCN(CC)CC)CC3)c2c1` [compound 132, ethyl 4-(4-(2-(diethylamino)ethoxy)piperidin-1-yl)-3-((4-ethylphenyl)sulfonyl)quinoline-6-carboxylate], the “48 hrs (morphology observations after 48 hours)” value is reported as “* (50% or less of cells vesicularize in cell shape)”.
`COc1ccc(S(=O)(=O)c2cnc3ccc([N+](=O)[O-])cc3c2NN2CCN(C)CC2)cc1` [compound 94, 3-((4-methoxyphenyl)sulfonyl)-N-(4-methylpiperazin-1-yl)-6-nitroquinolin-4-amine] was tested, and the “48 hrs (morphology observations after 48 hours)” value was 0.
